PubChem BioAssay AID588398 (Broad Institute, 2011)
Hit rate of the full screen: of about 1,200 compounds, about 110 (9.2%) were called active. About 8% were inconclusive and are not listed.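 The calls were made as follows: active = pathway reporter half-maximal dose under half the control reporter's, or control reporter unaffected while pathway reporter is inhibited; inconclusive = either signal flat at 30 to 70% inhibition or poorly fitted; inactive = the rest.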 The entries are a selection whose mix differs from that of the whole data set. Measured potencies and affinities stand elsewhere.

Assay: LMP1 TES1 pathway selectivity over dsRED control – imaging, HEK293T, dual-color eGFP/dsRED, cherry-picks, selectivity assay for LMP1 NF-kB inhibitor project, dose response (AID 588398);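 also: 0% = median of neutral control wells and -100% = median of MG132 positive control wells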
Details: 48 h; HEK293T Tet-On dsRED counter-screen channel, at 19.5 µM (top of the series) unless noted

Compound | activity change, negative = inhibition
Cc1ccc2[nH]c3c(c2c1)CCCC3NC(=O)CCl (stereo unspecified) | inactive: -99.7%
COc1ccc(OC)c2[nH]c(=O)c(CCNC(=O)c3ccc(S(=O)(=O)N(C)C)cc3)cc12 | inactive: 5.12%
COc1ccc(-c2csc3ncnc(NCCCO)c23)cc1 | inactive: -88%
COc1ccc(S(=O)(=O)NCC(c2cccnc2)N2CCN(c3ccc(F)cc3)CC2)cc1C (stereo unspecified) | inactive: -17.3%
O=C(CN1CCN(S(=O)(=O)c2ccc(F)cc2)CC1)Nc1cccc(C(F)(F)F)c1 | inactive: 2%
COc1ccccc1C1(CC(=O)O)CCOC(C)(C)C1 (stereo unspecified) | inactive: -4.27%
COc1ccc(OC)c(CCNC(=O)CCn2nc(C)c3c(C)n(-c4ccccc4)nc3c2=O)c1 | inactive: 33%
COc1cccc(/C=N\NC(=O)c2ccc(C)nc2)c1 | inactive: 1.79%
CCOC(=O)c1nc(NCc2ccccc2F)c2ccccc2n1 | inactive: -11.5%
CNC(=O)c1[nH]cnc1C(=O)N[C@@H](CCCCNC(=O)OC(C)(C)C)C(=O)OC(C)(C)C | inactive: 13.2%
COc1ccc(N2C(=O)C(Cl)=C(NCc3ccccc3)C2=O)cc1 | inactive: -1.67%
Nc1ccccc1SC1CC(=O)N(c2ccccc2Cl)C1=O (stereo unspecified) | inactive: 11.7%
CCC(=O)NC(c1ccc(Cl)cc1Cl)c1ccc2cccnc2c1O (stereo unspecified) | inactive: -96.5%
Cc1ccc(NS(=O)(=O)c2ccc(NC(=O)C(C)Sc3ccc(Cl)cc3)cc2)c(C)c1 (stereo unspecified) | inactive: 11.4%
CCc1ccccc1N(CC(=O)NCc1ccco1)C(=O)c1snc(C(N)=O)c1N | inactive: -0.253%
COc1ccc(/C=C2\SC(=O)N(CCCC(=O)Nc3ccc(C(=O)O)cc3)C2=O)cc1 | inactive: 9.66%
C(=Cc1cnc2ccccc2n1)c1ccc2c(c1)OCO2 | inactive: 7.85%
CC1=C(C)C(OCCCl)N(c2cc(O)c(Cl)cc2F)C1=O (stereo unspecified) | inactive: 1.07%
Cc1ccc(C(=O)Nc2ccc3ncccc3c2)cc1 | inactive: -2.36%
CCc1c(C)nc2cc(-c3ccc(OC)c(OC)c3)nn2c1NCC1CC1 | inactive: 53.3%
CCOc1cccc(CNc2nnnn2C)c1 | inactive: 6.94%
Cc1ccc(NC(=S)N=Nc2c(O)n(C)c3ccc(S(=O)(=O)N4CCOCC4)cc23)cc1 | inactive: 11.2%
COc1cc(CC(=O)N(c2ccccc2)c2nc(C)cs2)cc(OC)c1OC | inactive: 13.9%
CCc1nnc(NC(=O)c2cc(S(=O)(=O)N3CCN(CC)CC3)ccc2Cl)s1 | inactive: 26.4%
O=C(Nc1ccncc1)OCc1ccccc1 | inactive: 17.6%
CCn1c(CCNC(=O)c2ccc(OC)cc2)nnc1SCc1ccc(Cl)cc1Cl | inactive: 2.4%

Quoted at random: 2 compounds from above.
Compound | activity change, negative = inhibition
CCc1c(C)nc2cc(-c3ccc(OC)c(OC)c3)nn2c1NCC1CC1 | inactive: 53.3%
Cc1ccc(C(=O)Nc2ccc3ncccc3c2)cc1 | inactive: -2.36%

Remaining list, next part

Compound | activity change, negative = inhibition
Cc1ccc(-c2nnn(CC(=O)N(Cc3ccco3)C(C(=O)NC(C)(C)C)c3ccncc3)n2)o1 (stereo unspecified) | inactive: -5.13%
NC(=O)C1(Nc2ccc([N+](=O)[O-])cc2)CCCC1 | inactive: -2.27%
O=C(Cc1ccc(Cl)cc1)NCC(=O)N1CCCCC1 | inactive: -3.68%
COc1cccc(/C=C/c2ccc3ccccc3n2)c1OC(C)=O | inactive: -18.3%
COc1ccc(OC)c(S(=O)(=O)NC(C)CCc2ccccc2)c1 (stereo unspecified) | inactive: -0.41%
O=[N+]([O-])c1ccc(O)c(/C=N/Nc2ncnc3c2cnn3-c2ccccc2)c1 | inactive: 0.818%
CCC(=O)NC(=S)Nc1ccccc1C(F)(F)F | inactive: -9.66%
O=C(CC(c1ccc(F)cc1)c1ccco1)N1CCOCC1 (stereo unspecified) | inactive: 17.5%
Cc1cc(N=Cc2c(O)ccc3cc(Br)ccc23)no1 | inactive: -10.7%
COC(CNC(=O)c1ccc(N2CCC3(CC2)OCCO3)c([N+](=O)[O-])c1)OC | inactive: 18.1%
Cc1ccc(NC(=O)/C=N/OCC(=O)NCc2ccccc2Cl)cc1 | inactive: -5.76%
Nc1cc(=O)[nH]c(SCCSc2cc(Cl)ccc2Cl)n1 | inactive: 20.7%
NC(=O)N/N=C/c1ccc(N2CCOCC2)s1 | inactive: 6.52%
COc1ccc(-c2nc(C)ncc2-c2ccccc2)c(O)c1 | inactive: 3.95%
COc1ccc(-c2ccc3c(c2)S(=O)(=O)c2cccc(C(=O)NCc4cc(C)oc4C(F)(F)F)c2C3=O)cc1OC | inactive: 6.54%
COC(=O)c1ccc(CSc2nc3c(c(=O)n2-c2ccc(C)cc2)SCC3)o1 | inactive: 41.4%
Cc1ccc(CNC(=O)C(=O)NCC2OCCN2S(=O)(=O)c2ccc(Cl)cc2)cc1 (stereo unspecified) | inactive: 10.6%
Cc1nc(SCC(=O)c2cccc([N+](=O)[O-])c2)n[nH]1 | inactive: -8.68%
CCOC(=O)N1CCN(C(=O)C2CCC(=O)N(Cc3ccccc3OC)C2)CC1 (stereo unspecified) | inactive: 2.7%
O=C(O)/C=C/c1ccc2ccccc2n1 | inactive: -37.2%
CCNc1ccc(Br)cc(C(=O)/C=C/c2ccccc2Cl)c1=O | inactive: 52.4%
CC(C)(C)c1cc(C(=O)NNC(=O)Nc2cccc(Cl)c2)n(Cc2ccccc2)n1 | inactive: -6.62%
COCCn1c(SCc2ccc(C(=O)OC)o2)nnc1-c1c[nH]c2ccccc12 | inactive: 1.81%
CCOc1ccc(OCc2cccc(C(=O)N3CCCC3)c2)cc1 | inactive: 31.9%
COc1ccc2cc(C(N)=O)/c(=N\NC(=O)c3ccccc3)oc2c1 | inactive: -14.7%
Oc1ccccc1C=NN=Cc1c(O)ccc2ccccc12 | inactive: 8.98%

Entries above containing a COOH group (three):
Compound | activity change, negative = inhibition
COc1ccccc1C1(CC(=O)O)CCOC(C)(C)C1 (stereo unspecified) | inactive: -4.27%
COc1ccc(/C=C2\SC(=O)N(CCCC(=O)Nc3ccc(C(=O)O)cc3)C2=O)cc1 | inactive: 9.66%
O=C(O)/C=C/c1ccc2ccccc2n1 | inactive: -37.2%

The listing continues.

Compound | activity change, negative = inhibition
COc1cccc(-c2nnc(NC(=O)c3ccc(S(=O)(=O)N(CC(C)C)CC(C)C)cc3)o2)c1 | inactive: -4.01%
Cc1cccn2c(=O)c(C=NCCO)c(NCc3ccco3)nc12 | inactive: 8.58%
COCC(=O)N(C)c1nnc(-c2ccccn2)s1 | inactive: -8.28%
COc1ccc(CN2C(=O)c3cccnc3C2Nc2cc(Cl)ccc2OC)cc1 (stereo unspecified) | inactive: 22.8%
CCSc1nc2ccc(OC)cc2cc1C#N | inactive: 5.68%
CCn1c2ccccc2c2cc(/C=N/NC(=O)c3cc(O)cc(O)c3)ccc21 | inactive: -72.5% [HEK293T LMP1 TES1-eGFP reporter, at 6.8 µM]
CC(C(=O)N=Nc1c(O)[nH]c2ccccc12)n1cnc2ccccc2c1=O (stereo unspecified) | inactive: 2.17%
O=S(=O)(N/N=C/c1ccccc1F)c1ccccc1 | inactive: 4.33%
CC(C)(C)c1ccc(Cn2c(=O)cnc3ccccc32)cc1 | inactive: -5.17%
C[C@@]12C(=O)N(Cc3ccccc3)CC(=O)N1[C@H](/C=C/c1ccccc1)[C@@H]1C(=O)N(c3ccccc3)C(=O)[C@@H]12 | inactive: 7.86%
O=C(O)c1c2c(nc3ccccc13)/C(=C/c1ccc(O)cc1)CC2 | inactive: -0.558%
CCCCCCc1cc2cc(-c3nnc(-c4ccccc4)o3)c(=O)oc2cc1O | inactive: 17.2%
O=C(O)c1ccc(N/N=C/c2cc3cc4c(cc3nc2Cl)OCCO4)cc1 | inactive: 13.8%
Cc1cnc(NC(=O)c2ccccn2)s1 | inactive: 9%
O=C(COC(=O)c1cc2ccccc2cc1O)NCc1ccccc1 | inactive: 6%
COc1cc(/C=C(\C#N)c2ccccn2)ccc1OCc1ccccc1Cl | inactive: 9.75%
COC(=O)c1c(O)ccc(Oc2ccccc2)c1C(=O)OC | inactive: 2.56%
Cc1[nH]n(-c2ccc(Br)cc2)c(=O)c1/C=N/NC(=O)c1ccccc1 | inactive: -87.3%
NC(=S)N/N=C/c1ncc(C(F)(F)F)cc1Cl | inactive: -95.1%
COc1ccc(C(Nc2ccccn2)c2oc(CO)cc(=O)c2O)cc1 (stereo unspecified) | inactive: -3.88%
C=CCN(c1ccc(C(=O)Nc2ccc3c(c2)n(C)c(=O)n3C)cc1)S(C)(=O)=O | inactive: 59.9%
CCC(C)N1C(=O)CCC1C(=O)N1CCN(c2ccc(F)cc2)CC1 (stereo unspecified) | inactive: 13%
COc1ccc(C(=O)Nc2nnc(SCC(=O)NC3CC3)s2)cc1 | inactive: 5.05%
CCSC1=C(C#N)C(c2ccc(C)o2)CC(=O)N1 (stereo unspecified) | inactive: -5.14%
COc1ccc(-c2csc3ncnc(Sc4nnnn4C)c23)cc1 | inactive: -83.6%
O=C(O)c1ccc(N/N=C/c2ccc3ncccc3c2)cc1 | inactive: -2.02%

Compound | activity change, negative = inhibition
COc1ccc(O)c(/C=N/NC(=O)c2ccc(OCc3cccc(Br)c3)cc2)c1 | inactive: 22.7%
O=C1C=Cc2cccc3ccc(O)c1c23 | inactive: -25.7%
C[C@H](CO)N1C[C@H](C)[C@@H](CN(C)C(=O)NC2CCCCC2)Oc2c(NS(=O)(=O)c3cn(C)cn3)cccc2C1=O | inactive: 16.4%
CC[C@]1(C(=O)OC)[C@H]2C(=O)N(Cc3ccccc3)C(=O)[C@H]2[C@H]2CN=C(SCc3ccc(C#N)cc3)N21 | inactive: -100%
COc1ccccc1-c1ccccc1C1=CC(=O)CC(C)(C)C1=O | inactive: 7.03%
O=C(O)CCc1nc(-c2ccc(Cl)cc2)no1 | inactive: -6.77%
CCSc1nnc(NC(=O)CCn2c(=O)oc3ccccc32)s1 | inactive: 0.664%
COc1ccc(C=C2CS(=O)(=O)CC(=Cc3ccc(OC)cc3)C2=O)cc1 | inactive: -98.7%
CSCCC(NC(=O)c1ccco1)C(=O)OCC(=O)Nc1ncc(Cl)c(C)c1Cl (stereo unspecified) | inactive: -0.497%
Oc1ccc(C=NNC(=S)Nc2ccccc2)nc1 | inactive: -90.2%
COc1ccc(-c2oc3ncnc(NCCN4CCOCC4)c3c2-c2ccc(OC)cc2)cc1 | inactive: -6.05%
Cc1nc(C)n(C(C)CNC(=O)c2ccco2)n1 (stereo unspecified) | inactive: -2.14%
CCOCCCNC(=O)CN1C(=O)/C(=C\c2ccc(C)cc2)Sc2ccccc21 | inactive: 6.45%
CCN(CC)S(=O)(=O)c1ccc(N=NC2=C(O)CCCC2=O)cc1 | inactive: 6.44%
CC1(C)CN(Cc2ccccc2)C(=O)[C@H]1CC(=O)Nc1ccccc1 | inactive: 5.59%
O=S(=O)(NC1c2cccc3cccc(c23)C1Sc1ncccn1)c1ccccc1 (stereo unspecified) | inactive: 18%
COc1cc(/C=N/NC(=O)c2cccc(S(=O)(=O)N3CCOCC3)c2)cc(OC)c1O | inactive: 4.28%
CS(=O)(=O)N(CC(=O)Nc1ccc(F)cc1F)C1CCCCC1 | inactive: 1.2%
CN(Cc1ccc(F)cc1)C(=O)CN1CCN(S(=O)(=O)c2ccc3c(c2)OCCCO3)CC1 | inactive: 16.5%
CSc1oc(-c2ccc(F)cc2)nc1S(=O)(=O)c1ccc(F)cc1 | inactive: 0.061%
CC(CCc1ccco1)N(C)S(=O)(=O)c1csc(C(N)=O)c1 (stereo unspecified) | inactive: 14%
CC(=O)c1c(C)[nH]c(C(=O)Nc2ccc(C)cn2)c1C | inactive: 39.2%
Cc1nn(CCCC(=O)Nc2cccnc2Cl)c(C)c1[N+](=O)[O-] | inactive: 10.8%

Shown as tab-separated lines: entries from further up
Compound	activity change, negative = inhibition
CCOc1cccc(CNc2nnnn2C)c1	inactive: 6.94%
Cc1ccc(NC(=S)N=Nc2c(O)n(C)c3ccc(S(=O)(=O)N4CCOCC4)cc23)cc1	inactive: 11.2%
